Test results reported in patent US9518994B2, “Method for diagnosing and monitoring schizophrenia and tauopathies” (Ramot at Tel Aviv University, priority 2010, dated 2016).
At least one structure is not confirmed: it was looked up by name or label, or the drawing left a doubt.

How the values were obtained:
STOP+/- mice = details: chronic treatment; cited from earlier work
ADNP = experiment: Transgene shutoff by doxycycline in rTg(tau(P301L))4510 mice, western blots; assay type: in vivo, mouse; details: 2-month-old mice treated with doxycycline for three weeks; FIG. 3C

## CN1CCN(C2=Nc3cc(Cl)ccc3Nc3ccccc32)CC1 [clozapine]
STOP+/- mice
  schizophrenia-like symptoms (hyperactivity in open field and cognitive dysfunction): ameliorated

## C[C@H]1c2cccc(O)c2C(=O)C2=C(O)[C@]3(O)C(=O)C(C(N)=O)=C(O)[C@@H](N(C)C)[C@@H]3[C@@H](O)[C@@H]21 [doxycycline]
ADNP
  ADNP expression, western blots: a reduction in ADNP is also seen
  hTau 4R transgene expression, western blots: dramatically down-regulated
